Measurements published in PubChem BioAssay AID2685 (National Center for Advancing Translational Sciences (NCATS), 2010).
In all, about 320,000 compounds went through this assay and about 2,100 (0.66%) were called active. The shares of active, inactive and inconclusive entries below differ from those in the screen. The call rests on the fitted dose curve; in most records, active means well fitted inhibition curve with a large enough effect in the signal ratio, with a control signal flat (not every such curve was filed as active); inconclusive means small, poorly fitted or top-dose-only effect, or effect the other way, or a change in a side signal; inactive means flat fitted curve, though single readings scatter; the % refers to the signal ratio. Potencies beside an inconclusive call are fits to weak or partial responses and may not hold up.

Assay: qHTS Assay for Lipid Storage Modulators in Drosophila S3 Cells
Details: BODIPY lipid droplet fluorescence, 18-24 h, cells fed with added oleic acid; lipid storage change, negative = inhibition: at 46.1 µM (top of the series) unless noted
Procedure, shortened: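 Drosophila S3 cells got compounds at several concentrations plus oleic acid (400 uM solution). Laser-scanning cytometry with 488 nm excitation read lipid droplets at 500-530 nm and cells at 575-640 nm. Percent activity was relative to 20 uM Triacsin C.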
On the % scale 0 is the no-effect control and ±100 the full control effect; potency means the concentration at half of the fitted maximal effect.

Row | Structure (SMILES) | Potency | lipid storage change, negative = inhibition
1 | O=C1NC(=O)C2(Cc3ccccc3N3CCCC32)C(=O)N1c1cccc(Cl)c1 (stereo not drawn) | inconclusive: 0.206 µM [falling, full curve, poor fit] | –
2 | O=C(COc1ccc2ccccc2c1)N1CCN(C2CCN(Cc3ccccc3)CC2)CC1 | inconclusive: 0.231 µM [falling, full curve, poor fit] | –
3 | COc1ccc(OC)c(-n2c(O)c(C=NCc3ccc4c(c3)OCO4)c(=O)[nH]c2=O)c1 | – | inconclusive: 37%
4 | O=C(C1CCN(S(=O)(=O)N2CCOCC2)CC1)N1CCC2(CC1)OCCO2 | – | inconclusive: -0.359%
5 | CC1CCN(CC(=O)c2cccc(C(F)(F)F)c2)CC1 | – | inconclusive: 27%
6 | CNC(=O)Oc1ccc(-c2cn3cc(C)ccc3n2)cc1 | – | inconclusive: 3.89%
7 | Nc1c(C(=O)NCc2ccco2)c2nc3ccccc3nc2n1Cc1ccc(F)cc1 | inconclusive: 0.731 µM [rising, partial curve, poor fit] | –
8 | CCN(CC)c1ccc(N=Cc2c(O)n(Cc3ccccc3)c(=O)[nH]c2=O)cc1 | inconclusive: 0.259 µM [activator, full curve] | –
9 | CCN1CCN(P2(=O)C=C(c3ccccc3)OC(c3ccccc3)=C2)CC1 | inconclusive: 6.51 µM [falling, single point] | –
10 | COc1ccc(OC)c(N2C(=O)NC(=O)/C(=C\c3ccc([N+](=O)[O-])s3)C2=O)c1 | – | inconclusive: 4.6%
11 | O=C(Nc1ccc(Cl)cc1C(=O)c1ccccc1)c1ccccc1 | inconclusive: 18.4 µM [falling, partial curve] | –
12 | C=CCn1c(O)c(C(C)=NCCCN2CCOCC2)c(=O)[nH]c1=O | inconclusive: 29.1 µM [rising, single point] | –
13 | COCCCNC(=O)c1c(NC(=O)c2ccco2)n(Cc2ccccc2)c2nc3ccccc3nc12 | inconclusive: 14.6 µM [activator, partial curve] | –
14 | O=c1[nH]c(=S)n(-c2ccccc2)c(O)c1/C=N/N1CCCCC1c1cccnc1 (stereo not drawn) | – | inconclusive: -2.84%
15 | COC(=O)C1=C(c2ccc(OC)c(OC)c2)C[C@@H]2CC[C@H]1N2C(=O)NCCNC(C)=O | – | inconclusive: -8.78%
16 | O=C(Nc1cccc(C(F)(F)F)c1)OC1CN2CCC1CC2 (stereo not drawn) | – | inconclusive: 40.5%
17 | OC(c1ccncc1)(c1ccc(F)cc1)c1ccc(F)cc1 | – | inconclusive: 34.6%
18 | CCCNS(=O)(=O)c1ccc(OCC(=O)N2CCN(Cc3ccc4c(c3)OCO4)CC2)c(C)c1 | – | inactive: -21.8%
19 | CCOP(=O)(OCC)c1nc(-c2cccc3ccccc23)oc1NCCc1ccc(OC)cc1 | inconclusive: 0.517 µM [activator, full curve] | –
20 | COC(=O)C1=C(c2ccc(C(C)=O)cc2)C[C@@H]2CC[C@H]1N2C(=O)N1CCOCC1 | – | inconclusive: -9.74%
21 | Cc1cc(Cc2c(O)[nH]c(=S)[nH]c2=O)ccc1OC(C)C | – | inconclusive: 121%
22 | CN1CCC(C)(O)C2CCCCC21 (stereo not drawn) | – | inconclusive: -21.7%
23 | Cc1nn(Cc2ccccc2)c(C)c1C(=O)NCc1ccccc1 | – | inconclusive: 29.6%
24 | COc1cc2c(cc1OC)-c1c(OC)c(OC)cc3c1[C@H](C2)[N+](C)(C)CC3 | – | inconclusive: -0.0584%

Row | Structure (SMILES) | Potency | lipid storage change, negative = inhibition
25 | CCn1cc(CN2CCCC(C(=O)c3sccc3C)C2)cn1 (stereo not drawn) | – | inconclusive: -15.6%
26 | CCN(CC)C(=O)c1ccc(NC(=O)CCCSc2ccccc2)cc1 | – | inconclusive: 10.3%
27 | CCCCn1c(=O)c(C(=O)NCc2ccncc2)c(O)c2ccccc21 | – | inconclusive: 10.9% [at 9.22 µM]
28 | CCC(=NCCCN(CC)CC)c1c(O)n(-c2ccccc2)c(=O)[nH]c1=O | inconclusive: 16.4 µM [falling, partial curve] | –
29 | O=C(Cc1ccccc1)N1CCN(Cc2ccccc2Cl)CC1 | – | inconclusive: -11.8%
30 | Cc1nc2nc(C)c(CCC(=O)N3CCC4(CC3)OCCO4)c(C)n2n1 | inconclusive: 32.6 µM [falling, single point] | –
31 | CC1CN=C(NCc2ccccc2Cl)S1 (stereo not drawn) | inconclusive: 0.146 µM [activator, full curve] | –
32 | O=C(c1cc(C(=O)NCc2ccccc2)c(=O)n(Cc2ccccc2)c1)c1cc(Br)ccc1O | – | inconclusive: -29.8%
33 | COc1ccc(OC)c(N2C(=O)NC(=O)C3(Cc4cc(C)ccc4N(C)C3)C2=O)c1 (stereo not drawn) | inconclusive: 2.31 µM [rising, single point] | –
34 | O=[N+]([O-])/C=C1/NCCN1Cc1ccc(Cl)nc1 | – | inconclusive: -31.1%
35 | Cc1c(C=C2C(=O)NC(=O)NC2=O)c(=O)n(-c2ccccc2)n1C | – | inconclusive: -32.3%
36 | Oc1cc2c(cc1CN1CCN(c3ccccc3F)CC1)OCO2 | – | inconclusive: 122%
37 | CC(C)c1ccc(C2N3CCCN23)cc1 (stereo not drawn) | – | inconclusive: -1.98%
38 | CCOCCCn1c(N)c(C(=O)Nc2sc3c(c2C(=O)OC)CCCC3)c2nc3ccccc3nc21 | inconclusive: 0.184 µM [activator, partial curve, poor fit] | –
39 | CN1C2CCC1CC(OC(=O)CCN1CCCC1)C2 (stereo not drawn) | – | inconclusive: -74%
40 | O=C(Nc1ccc(Cl)cc1)N1CC2CC(C1)c1cccc(=O)n1C2 (stereo not drawn) | active: 1.84 µM | –
41 | COc1ccc(C2SCC(=O)Nc3c2c(=O)[nH]n3C2CCCCCC2)cc1 (stereo not drawn) | – | inconclusive: 79.2%
42 | COc1ccc(OC)c(CC(=O)N(C)C2CCCN(Cc3ccccc3F)C2)c1 (stereo not drawn) | inconclusive: 6.51 µM [activator, single point] | –
43 | Cc1c(C=C2C(=O)N(C)C(=S)N(C)C2=O)c2ccccc2n1CC(=O)NCC1CCCO1 (stereo not drawn) | – | inconclusive: 57.5%
44 | O=C(CCS(=O)(=O)c1ccc(Br)cc1)N1CCC2(CC1)OCCO2 | – | inconclusive: 20.5%
45 | NP(=O)(OCCCc1ccccc1)c1ccccc1 (stereo not drawn) | inconclusive: 1.16 µM [falling, full curve, poor fit] | –
46 | COc1ccc2c(c1)c(C(=O)C(C)N1CCCCC1)c(C)n2C (stereo not drawn) | – | inconclusive: -16.3%
47 | O=c1c2ccccc2nc(-c2ccco2)n1-c1ccncc1 | – | inconclusive: 12.2%
48 | Cc1ccc(S(=O)(=O)Oc2ccccc2C=C2C(=O)N(C)C(=O)N(C)C2=O)cc1 | inconclusive: 20.6 µM [falling, single point] | –

2 records drawn at random from the list so far:
Row | Structure (SMILES) | Potency | lipid storage change, negative = inhibition
42 | COc1ccc(OC)c(CC(=O)N(C)C2CCCN(Cc3ccccc3F)C2)c1 (stereo not drawn) | inconclusive: 6.51 µM [activator, single point] | –
30 | Cc1nc2nc(C)c(CCC(=O)N3CCC4(CC3)OCCO4)c(C)n2n1 | inconclusive: 32.6 µM [falling, single point] | –
